Numbering of substitutions follows the chain as printed. Results are given in words; binding and its absence hold for the method and conditions named. Some binding calls cover weakened binding; strength is not graded here.
B1: SEQ ID NO 361 (designed binder)
chain: NVSPPRRARVTDATETTITIRWTLGLGFQVDAVPANGQTPIQRTIKRDAHVYTITGLQPGTDYKIYLYTLNDNARSSPVVIDAST
B2: SEQ ID NO 362 (designed binder)
chain: NVSPPRRARVTDATETTITIRWSIGFQVDAVPANGQTPIQRTIKRDAPSYTITGLQPGTDYKIYLYTLNDNARSSPVVIDAST
B3: SEQ ID NO 363 (designed binder)
chain: NVSPPRRARVTDATETTITIRWALPRSEFTRFQVDAVPANGQTPIQRTITANIRGYTITGLQPGTDYKIYLYTLNDNARSSPVVIDAST
B4: SEQ ID NO 364 (designed binder)
chain: NVSPPRRARVTDATETTITISWGLPRSKVVGFQVDAVPANGQTPIQRTIKPDVRSYTITGLQPGTDYKIYLYTLYGYVSGSSPVVIDAST
B5: SEQ ID NO 365 (designed binder)
chain: NVSPPRRARVTDATETTITIRWKLAGSQVVGFQVDAVPANGQTPIQRTIKPDVRSYTITGLQPGTDYKIYLYTLTIRGGSAVGSSPVVIDAST
B6: 1637111_AXLB09 (designed binder)
chain: NVSPPRRARVTDATETTITISWERSESTVVGLQVDAVPANGQTPIQRTIKPDVRSYTITGLQPGTDYKIYLYTLTVVGKSAHGSSPVVIDAST
B7: SEQ ID NO 367 (designed binder)
chain: NVSPPRRARVTDATETTITISWGLPRGTVNGFQVDAVPANGQTPIQRTIKGAKRVYTITGLQPGTDYKIYLYTLNDNARSSPVVIDAST
B8: 1637111_AXLE06 (designed binder)
chain: B5 chain with K23A, L24V, A25S, G26P, Q28T, T75N, I76V, R77K, V82S, G83A
B9: 1637111_AXLG02 (designed binder)
chain: NVSPPRRARVTDATETTITIPWAAGIEANGEITGFQVDAVPANGQTPIQRTIKPDVRSYTITGLQPGTDYKIYLYTLYGAGKTSSPVVIDAST
B10: SEQ ID NO 370 (designed binder)
chain: NVSPPRRARVTDATETTITIRWKKPKHDGGAKLTGFQVDAVPANGQTPIQRTIKPDVRSYTITGLQPGTDYKIYLYTLNTRGSGHVRSSPVVIDAST
B11: SEQ ID NO 371 (designed binder)
chain: B5 chain with R21S, K23R, L24R, G26E, Q28T, T75N, V82A, G83A
B12: SEQ ID NO 372 (designed binder)
chain: NVSPPRRARVTDATETTITISWGLAPSQFARFQVDAVPANGQTPIQRTIKPDVRSYTITGLQPGTDYKIYLYTLNGYGRGQVASSPVVIDAST
B13: SEQ ID NO 373 (designed binder)
chain: NVSPPRRARVTDATETTITIRWGVPGFQVDAVPANGQTPIQRTIHRATNIYTITGLQPGTDYKIYLYTLNDNARSSPVVIDAST
B14: SEQ ID NO 374 (designed binder)
chain: B6 chain with E23A, R24P, S25A, E26A, V76M, K79A, S80G, H82V
B15: SEQ ID NO 375 (designed binder)
chain: NVSPPRRARVTDATETTITIRWEGRGVIGFQVDAVPANGQTPIQRTIKPDVRSYTITGLQPGTDYKIYLYTLTVVGNSAFASSPVVIDAST
B16: SEQ ID NO 376 (designed binder)
chain: B4 chain with S21R, G23E, L24R, P25A, R26P, V29F
B17: SEQ ID NO 377 (designed binder)
chain: B4 chain with S21T, G23T, L24V, V29F
B18: SEQ ID NO 378 (designed binder)
chain: NVSPPRRARVTDATETTITISWKKPKHNGGSKLTGFQVDAVPANGQTPIQRTIKPDVRSYTITGLQPGTDYKIYLYTLYRRLGASSPVVIDAST
B19: SEQ ID NO 379 (designed binder)
chain: NVSPPRRARVTDATETTITITWEAPVRANSILISFQVDAVPANGQTPIQRTIKPDVRSYTITGLQPGTDYKIYLYTLKNYESSSSPVVIDAST
B20: SEQ ID NO 380 (designed binder)
chain: B5 chain with K23A, A25P, G26A, Q28T, T75N, G79N, V82S, G83A
B21: SEQ ID NO 381 (designed binder)
chain: NVSPPRRARVTDATETTITISWEGSPSTFIGFQVDAVPANGQTPIQRTIKPDVRSYTITGLQPGTDYKIYLYTLPDSGRSSSPVVIDAST
B22: SEQ ID NO 382 (designed binder)
chain: B6 chain with S21T, E23T, S25A, E26R, L32F, V77I, K79D, H82Y, G83S
B23: SEQ ID NO 383 (designed binder)
chain: B2 chain with R21S, S23G, I24V, D46G, A47K, P48T, S49V
B24: SEQ ID NO 384 (designed binder)
chain: NVSPPRRARVTDATETTITISWRTKTETITGFQVDAVPANGQTPIQRTINSGARVYTITGLQPGTDYKIYLYTLNGYGVGTHASSPVVIDAST
B25: SEQ ID NO 385 (designed binder)
chain: NVSPPRRARVTDATETTITISWRTKTETITGFQVDAVPANGQTPIQRTIDADIHTYTITGLQPGTDYKIYLYTLNEIGDSKYRSSPVVIDAST
B26: SEQ ID NO 386 (designed binder)
chain: NVSPPRRARVTDATETTITISWRTKTETITGFQVDAVPANGQTPIQRTITPTASGYTITGLQPGTDYKIYLYTLNDREKASSPVVIDAST
B27: SEQ ID NO 387 (designed binder)
chain: B24 chain with N50T, S51A, G52T, A53I, R54S, V55G, H82V, A83R
B28: SEQ ID NO 388 (designed binder)
chain: B24 chain with G52A, R54H, N75T, H82D
B29: SEQ ID NO 389 (designed binder)
chain: B24 chain with S51R, G52N, R54H, V55S, N75T, H82L, A83G
B30: SEQ ID NO 390 (designed binder)
chain: B24 chain with N50A, S51A, G52S, A53I, R54H, T81E, H82S, A83R
B31: SEQ ID NO 391 (designed binder)
chain: B24 chain with V55S, H82L
B32: 1637112_AXLA04 (designed binder)
chain: B2 chain with R21S, S23R, I24T, G25S, D46G, A47V, P48T
B33: SEQ ID NO 393 (designed binder)
chain: B24 chain with N50A, G52N, A53I, R54H, V55S, H82V, A83S
B34: SEQ ID NO 394 (designed binder)
chain: NVSPPRRARVTDATETTITISWRTKTETITGFQVDAVPANGQTPIQRTIATNVHSYTITGLQPGTDYKIYLYTLTKRGTGSSPVVIDAST
B35: SEQ ID NO 395 (designed binder)
chain: B24 chain with N50A, S51T, N75T, T81Q, H82A
B36: SEQ ID NO 396 (designed binder)
chain: B34 chain with T51A, N52A, V53T, H54R, R77Y, G78R, T79A, G80A
B37: SEQ ID NO 397 (designed binder)
chain: B13 chain with G23A, V24E, H45K, A47T, T48A, N49R, I50V
B38: SEQ ID NO 398 (designed binder)
chain: B24 chain with N50A, G52N, A53I, R54H, V55S, N75T, A83G
B39: SEQ ID NO 399 (designed binder)
chain: B26 chain with T50D, T52S, A53K, N75K, D76S, R77G, E78G, K79R
B40: SEQ ID NO 400 (designed binder)
chain: B24 chain with S51R, G52N, R54H, V55T, H82V, A83S
B41: SEQ ID NO 401 (designed binder)
chain: B24 chain with N50A, S51T, N75T
B42: SEQ ID NO 402 (designed binder)
chain: B34 chain with T51S, N52T, H54N, S55T, T75Y, R77V, G78R, T79A, G80T

The chains behind the UniProt entries cited, without tags or fusion partners. Residues count along the entry.
UniProt P30530, residues 26-449: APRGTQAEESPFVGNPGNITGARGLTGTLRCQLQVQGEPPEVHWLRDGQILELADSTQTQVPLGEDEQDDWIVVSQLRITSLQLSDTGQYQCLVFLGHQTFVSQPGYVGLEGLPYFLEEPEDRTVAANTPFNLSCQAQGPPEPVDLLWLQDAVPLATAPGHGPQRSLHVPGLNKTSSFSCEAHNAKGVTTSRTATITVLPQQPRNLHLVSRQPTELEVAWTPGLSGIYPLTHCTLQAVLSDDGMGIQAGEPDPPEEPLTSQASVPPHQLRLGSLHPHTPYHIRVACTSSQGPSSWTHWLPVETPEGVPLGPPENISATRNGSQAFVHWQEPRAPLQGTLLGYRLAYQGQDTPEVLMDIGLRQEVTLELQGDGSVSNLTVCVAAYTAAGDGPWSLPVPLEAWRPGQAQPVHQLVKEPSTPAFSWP

Molecular target: Axl (UniProt P30530)
Assay: phage display selection

Binder	binding
B1	binds
B2	binds
B3	binds
B4	binds
B5	binds
B6	binds
B7	binds
B8	binds
B9	binds
B10	binds
B11	binds
B12	binds
B13	binds
B14	binds
B15	binds
B16	binds
B17	binds
B18	binds
B19	binds
B20	binds
B21	binds

Binder	binding
B22	binds
B23	binds
B24	binds
B25	binds
B26	binds
B27	binds
B28	binds
B29	binds
B30	binds
B31	binds
B32	binds
B33	binds
B34	binds
B35	binds
B36	binds
B37	binds
B38	binds
B39	binds
B40	binds
B41	binds
B42	binds
